In patent US20220372132A1 (SG MEDICAL, published 2022):
These are yes or no findings as the source states them, for the method shown. Some binding calls cover weakened binding; strength is not graded here.

The chains behind the UniProt entries cited, without tags or fusion partners. Residues count along the entry.
UniProt P09055, residues 21-728: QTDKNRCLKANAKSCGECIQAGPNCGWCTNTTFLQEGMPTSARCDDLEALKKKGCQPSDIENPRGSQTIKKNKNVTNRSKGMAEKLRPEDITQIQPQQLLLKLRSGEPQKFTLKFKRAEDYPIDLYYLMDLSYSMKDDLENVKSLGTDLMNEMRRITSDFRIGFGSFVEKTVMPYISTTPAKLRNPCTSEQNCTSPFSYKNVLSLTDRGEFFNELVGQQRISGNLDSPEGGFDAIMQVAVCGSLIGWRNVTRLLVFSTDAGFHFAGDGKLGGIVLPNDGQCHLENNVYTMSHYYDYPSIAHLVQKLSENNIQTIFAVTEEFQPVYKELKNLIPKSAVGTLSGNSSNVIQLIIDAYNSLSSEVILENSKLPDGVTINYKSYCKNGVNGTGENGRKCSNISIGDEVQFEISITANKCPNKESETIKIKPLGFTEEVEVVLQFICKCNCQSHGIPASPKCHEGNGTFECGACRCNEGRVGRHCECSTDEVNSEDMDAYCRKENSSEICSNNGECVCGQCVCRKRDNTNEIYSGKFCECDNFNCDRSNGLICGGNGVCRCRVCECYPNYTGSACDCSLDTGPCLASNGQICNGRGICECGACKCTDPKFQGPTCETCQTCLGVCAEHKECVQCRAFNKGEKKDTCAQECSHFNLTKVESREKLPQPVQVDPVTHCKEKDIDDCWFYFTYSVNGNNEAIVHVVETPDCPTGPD

Biological target: recombinant mouse beta 1 integrin (MyBioSource, USA) (mouse) (UniProt P09055)
Assay: direct ELISA, antigen coated at 1 µg/ml, HRP-labeled antibody

binding: binds
B1: monoclonal antibody GP5 (antibody, human IgG1, V domains shown)
VH: QVQLQQSGSELMKPGASVKVSCKASGYTFTNYWIEWIVQRPGHGLEWIGEILPGSVNTNYNAKFKDRATFTADTSTDTASMELSSLTSEDSAVYYCALATPYYALDSWGQGTSVTVSS
VL: DIVMTQAAPSLSVTPGESVSISCRSTESLLHSNGNTYLYWYLQKPGQSPQLLIYRMSNRASGVPDRFSGSGSGTAFTLKIRRVEAEDVGVYYCMQHLEYPFTFGAGTKLELK
notes: Full IgG made in HEK293F cells; The humanized VH is joined to a human IgG1 heavy chain constant region (CH1, CH2, CH3) and the VL to a human Ckappa; also called humanized antibody GP5; modified monoclonal antibody (GP5)
